Assay results taken from article PMC4165759.
No constants are given. Whether binding was seen depends on the method and setting. Binding calls can cover weak binding; strength is not graded here.

Amino acid sequences for entries named in this document (tags omitted).
UniProt Q9SSA8: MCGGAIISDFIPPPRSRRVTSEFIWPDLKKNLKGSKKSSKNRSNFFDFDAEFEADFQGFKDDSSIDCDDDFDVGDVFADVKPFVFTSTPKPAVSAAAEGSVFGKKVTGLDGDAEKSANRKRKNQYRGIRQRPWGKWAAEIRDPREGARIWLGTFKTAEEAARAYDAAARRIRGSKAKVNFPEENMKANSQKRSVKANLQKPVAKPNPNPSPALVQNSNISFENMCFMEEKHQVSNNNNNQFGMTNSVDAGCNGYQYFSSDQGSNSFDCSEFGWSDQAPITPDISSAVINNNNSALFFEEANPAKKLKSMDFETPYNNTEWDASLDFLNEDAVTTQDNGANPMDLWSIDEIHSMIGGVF
UniProt O22259: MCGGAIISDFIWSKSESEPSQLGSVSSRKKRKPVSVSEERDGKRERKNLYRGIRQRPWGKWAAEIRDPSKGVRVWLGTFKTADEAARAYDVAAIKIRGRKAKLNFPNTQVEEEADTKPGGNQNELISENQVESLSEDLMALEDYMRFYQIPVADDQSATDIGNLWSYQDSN
UniProt Q8H0T5: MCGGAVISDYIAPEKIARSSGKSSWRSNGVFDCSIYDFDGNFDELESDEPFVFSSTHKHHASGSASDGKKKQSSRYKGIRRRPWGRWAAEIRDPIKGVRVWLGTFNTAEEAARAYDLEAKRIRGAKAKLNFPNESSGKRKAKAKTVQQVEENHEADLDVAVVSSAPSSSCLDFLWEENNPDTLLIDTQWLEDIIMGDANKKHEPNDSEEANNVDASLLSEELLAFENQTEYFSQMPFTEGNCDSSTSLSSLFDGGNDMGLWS
UniProt Q9LUM4: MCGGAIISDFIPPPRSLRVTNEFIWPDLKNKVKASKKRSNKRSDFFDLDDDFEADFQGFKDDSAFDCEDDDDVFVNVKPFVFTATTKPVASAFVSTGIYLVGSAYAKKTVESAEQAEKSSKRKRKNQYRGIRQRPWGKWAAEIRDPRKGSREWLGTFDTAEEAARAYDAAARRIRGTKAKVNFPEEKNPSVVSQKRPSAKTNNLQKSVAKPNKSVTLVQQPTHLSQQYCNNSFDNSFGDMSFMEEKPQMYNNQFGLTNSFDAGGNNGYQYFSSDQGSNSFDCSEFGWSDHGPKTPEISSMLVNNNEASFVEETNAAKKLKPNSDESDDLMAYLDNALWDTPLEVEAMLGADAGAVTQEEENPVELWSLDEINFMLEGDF

Target: HRA1 C-terminal fragment (HRA1_(194–431)), yeast two-hybrid fusion of Figure 4B (Arabidopsis thaliana) (UniProt F4J2I9)
Test: two-hybrid; ProQuest Two-Hybrid System, S. cerevisiae MaV203; baits in pDEST32, preys in pDEST22; growth on SC-LWH with 10 mM 3AT and β-galactosidase (LacZ) staining; 28°C

| binding | Substance |
| --- | --- |
| binds | RAP2.12, yeast two-hybrid fusion of Figure 4B (from UniProt Q9SSA8 1-358) |
| no binding | HRE2, yeast two-hybrid fusion of Figure 4B (from UniProt O22259 1-171) |
| no binding | HRE1, yeast two-hybrid fusion of Figure 4B (from UniProt Q8H0T5 1-262) |
| no binding | RAP2.2, yeast two-hybrid fusion of Figure 4B (from UniProt Q9LUM4 1-379) |
